# PubChem BioAssay AID485353 (National Center for Advancing Translational Sciences (NCATS), 2010)
# In all, about 330,000 compounds went through this assay and about 610 (0.18%) were called active. The shares of active, inactive and inconclusive entries below differ from those in the screen. Calls come from the whole dose curve. Potencies of inconclusive entries are doubtful fits and often do not repeat.
# Test: qHTS of Yeast-based Assay for SARS-CoV PLP; note: nearly all actives have a fitted effect of over 55% in size
# Settings: S. cerevisiae expressing SARS-CoV PLpro; Potency: growth rescue; series mostly up to 32.9 µM
# Potency is the fitted concentration of half-maximal effect.
row,Compound,Potency
1,COC(=O)CC1=NN(c2ccc(OC)cc2)C(=O)/C1=C\c1ccc(Cl)cc1,"inconclusive: 12.6 µM [activator, partial curve]"
2,Cc1ccc(NC(=O)CCCCCCCCCCC2COCCO2)c(C)c1 (stereo not drawn),"inconclusive: 3.98 µM [activator, full curve, poor fit]"
3,COc1cccc(-c2nc(-c3cccs3)no2)c1,inactive
4,O=C(O)c1ccc(S(=O)(=O)N2CCN(c3ccccn3)CC2)cc1,"inconclusive: 1 µM [activator, full curve]"
5,COCCN1C(=O)c2ccc(C(=O)NCc3ccco3)cc2C1=O,"inconclusive: 22.4 µM [activator, single point]"
6,C/C(=N\NC(=O)c1cc(-c2cccnc2)nc2ccccc12)c1ccccc1O,active: 10 µM
7,COc1ccc(-c2ccc(SCC(=O)N3c4ccccc4CC3C)nn2)cc1OC (stereo not drawn),"inconclusive: 3.16 µM [activator, single point]"
8,CC(Oc1ccccc1F)C(=O)Nc1ccc2ccccc2c1 (stereo not drawn),"inconclusive: 0.355 µM [activator, full curve, poor fit]"
9,COc1cc(C(=O)OCCCOC(=O)c2cc(OC)c(OC)c(OC)c2)cc(OC)c1OC,"inconclusive: 2.82 µM [activator, single point]"
10,CCOC(=O)N1CCN(C(=O)C(CC(C)C)NS(=O)(=O)c2ccc3c(c2)oc(=O)n3C)CC1 (stereo not drawn),inactive
11,Oc1ccccc1/C=N/Nc1ncc(Br)cn1,"inconclusive: 3.55 µM [activator, single point]"
12,O=c1c2oc3ccccc3c2ncn1Cc1ccccc1F,inactive
13,COc1cccc(C(=O)Nc2nc(-c3ccccc3)c(-c3ccccc3)o2)c1,"inconclusive: 20 µM [activator, single point]"
14,Cn1nnnc1SCc1ccc(C(=O)Nc2ccccc2F)cc1,inactive
15,COc1ccc(S(=O)(=O)Cc2ccc(C(=O)NC(C)C)o2)cc1,"inconclusive: 1.41 µM [activator, single point]"
16,O=C(CC1C(=O)NCCN1CC1CCCCC1)NCc1ccc(Cl)cc1 (stereo not drawn),inactive
17,C[C@]12c3[nH]c4cc(-c5ccco5)ccc4c3CCN1C(=O)[C@@H](CC(=O)NCCCn1ccnc1)C[C@@H]2C(=O)N1CCOCC1,"inconclusive: 3.55 µM [activator, single point]"
18,Cc1cc(=O)n2nc(N3CCC(C(=O)NCc4ccccc4F)CC3)sc2n1,active: 11.2 µM
19,Clc1ccccc1OCc1nn2c(-c3ccncc3)nnc2s1,"inconclusive: 11.2 µM [activator, single point]"
20,COCCNC(=O)Cn1c(=O)n(Cc2ccc(C(=O)NCc3ccco3)cc2)c(=O)c2ccccc21,"inconclusive: 22.4 µM [activator, partial curve]"
21,CC(C)OCCCNC(=O)CCC(=O)NNc1nc2ccccc2c2nc(-c3ccccc3)nn12,"inconclusive: 0.282 µM [activator, partial curve, poor fit]"
22,O=C(NCCN1C(=O)S/C(=C\c2ccc(Cl)c([N+](=O)[O-])c2)C1=O)C1=COCCO1,inactive
23,CC/C(=N\NC(=S)NC(C)C)c1ccc(OC)c(OC)c1,"inconclusive: 17.8 µM [activator, single point]"

row,Compound,Potency
1,CCc1ccc(OCc2nnc(SCCN3CCOCC3)n2CC)cc1,"inconclusive: 3.98 µM [activator, single point]"
2,Cc1cnc(CN(C)C(=O)CC2C(=O)NCCN2CCCc2ccccc2)[nH]1 (stereo not drawn),"inconclusive: 0.398 µM [activator, full curve, poor fit]"
3,Cc1cccc(-c2noc(CCC(=O)Nc3ccccc3)n2)c1,"inconclusive: 3.16 µM [activator, single point]"
4,Cc1ccc(NC(=O)CSc2nccn2Cc2ccco2)cc1,"inconclusive: 1 µM [activator, full curve]"
5,Clc1ccccc1-c1nnc2sc(-c3ccccn3)nn12,"inconclusive: 20 µM [activator, single point]"
6,Cc1cc2cc(CN(Cc3ccc4c(c3)OCO4)C(=O)c3ccco3)c(=O)[nH]c2cc1C,"inconclusive: 3.98 µM [activator, single point]"
7,COc1ccc(S(=O)(=O)N2CCOCC2)cc1NC(=O)c1sccc1C,inactive
8,CCOC(=O)CSc1nc(N)c(C#N)c(-c2ccc(OC)cc2)c1C#N,"inconclusive: 2.51 µM [activator, full curve]"
9,COCCN(C(=S)Nc1ccccc1C)C(C)c1cccs1 (stereo not drawn),"inconclusive: 5.01 µM [activator, partial curve]"
10,Cc1scc(-c2n[nH]c(=S)n2C(C)c2ccccc2)c1C (stereo not drawn),"inconclusive: 10 µM [activator, partial curve]"
11,Cc1ccc(N2C(=O)CC(NCc3ccc4c(c3)OCO4)C2=O)cc1Cl (stereo not drawn),"inconclusive: 17.8 µM [activator, single point]"
12,Cc1nc([N+](=O)[O-])c(Sc2nc3ccc([N+](=O)[O-])cc3[nH]2)n1Cc1ccccc1,active: 10 µM
13,CCCCn1c(N)c(N(Cc2ccccc2OC)C(=O)c2ccc([N+](=O)[O-])s2)c(=O)[nH]c1=O,"inconclusive: 2.82 µM [activator, partial curve]"
14,COc1ccc2nc(N/C(N)=N/C(=S)Nc3cccc(C)c3)nc(C)c2c1,"inconclusive: 20 µM [activator, single point]"
15,O=C(c1cc(COc2ccc(F)cc2Cl)on1)N1CCCCCC1,"inconclusive: 12.6 µM [activator, single point]"
16,COc1cccc(C(C(=O)NC2CCCC2)N(Cc2ccco2)C(=O)c2ccco2)c1OC (stereo not drawn),inactive
17,CCCCn1c(=O)[nH]c(=O)c2c1nc(-c1ccc(-c3ccc(F)cc3)o1)n2C,inactive
18,CCn1nnc(-c2ccccc2NS(=O)(=O)c2ccc(S(=O)(=O)N(C)C3CCCCC3)cc2)n1,"inconclusive: 3.98 µM [activator, single point]"
19,COC(=O)c1ccc(N2CCN(CCNC(=O)Nc3ccc(OC)cc3)CC2)cc1,"inconclusive: 4.47 µM [activator, single point]"
20,CC(=O)N(C)Cc1ccc(C(=O)CCl)cc1,active: 7.94 µM
21,CC(=O)c1ccc(OCc2cc(C(=O)N(C)Cc3cc(C)no3)no2)cc1,"inconclusive: 20 µM [activator, single point]"
22,CCCN(CC(=O)Nc1ccc(F)c(F)c1F)C(=O)c1ccc(N2CCCC2=O)cc1,inactive
23,CCC(C)NC(=O)C1CCCN(S(=O)(=O)c2ccc(-n3cnnn3)cc2)C1 (stereo not drawn),"inconclusive: 12.6 µM [activator, single point]"

row,Compound,Potency
1,O=C(COC(=O)c1ccc2c(c1)OCO2)Nc1ccccc1Cl,inactive
2,COc1cccc(CNC(=O)C2CC(=O)N(C3CCCCCCC3)C2)c1 (stereo not drawn),"inconclusive: 3.55 µM [activator, single point]"
3,NNc1nc(Nc2ccccc2)nc(N2CCCCC2)n1,inactive
4,OC(c1ccccn1)(c1ccccn1)c1ccccn1,"inconclusive: 22.4 µM [activator, partial curve, poor fit]"
5,Cc1cc(/C=N/n2cnnc2)c(C)n1-c1cccc(C(=O)O)c1,"inconclusive: 2 µM [activator, full curve, poor fit]"
6,c1ccc(C2CCC(N3CCNCC3)CC2)cc1 (stereo not drawn),"inconclusive: 22.4 µM [activator, single point]"
7,COc1cccc(-n2cc(C(=O)NCCCOC(C)C)c3ccccc3c2=O)c1,inactive
8,CCCCc1nc2ccccc2c(=O)n1NC(=O)c1c(O)c2c(n(CC(C)C)c1=O)CCCC2,"inconclusive: 2.51 µM [activator, single point]"
9,NS(=O)(=O)c1ccc(CCNC(=O)C(=O)c2cn(CC(=O)N3CCOCC3)c3ccccc23)cc1,inactive
10,O=c1c2ccccc2nnn1CSc1nnc(-c2ccco2)o1,"inconclusive: 3.98 µM [activator, single point]"
11,NC(=O)c1nsc(C(=O)N(c2ccccc2)C(C(=O)NC2CCCC2)c2ccncc2)c1N (stereo not drawn),inactive
12,CCOc1ccc(N2C(=O)CC(N(CCc3ccc(OC)c(OC)c3)C(=S)Nc3ccccc3)C2=O)cc1 (stereo not drawn),"inconclusive: 3.16 µM [activator, single point]"
13,Cc1ccc(C(=O)N/C(=C\c2cccs2)C(=O)NCC2CCCO2)cc1C (stereo not drawn),"inconclusive: 20 µM [activator, single point]"
14,CC(CCc1ccccc1)NC(=O)C1CCN(S(=O)(=O)c2ccc(F)cc2)CC1 (stereo not drawn),inactive
15,O=C(COC(=O)CNC(=O)c1ccc(Cl)cc1)Nc1ccc(Cl)cc1C(F)(F)F,"inconclusive: 1.26 µM [activator, single point]"
16,COc1ccc(Cn2c(-c3ccc(C)cc3)c[n+]3ccccc23)cc1,inactive
17,CCc1nc(C#N)c(N2CCCCC2)o1,"inconclusive: 10 µM [activator, partial curve]"
18,COc1cc(C)nc(Oc2ccc(/C=N/O)cc2)n1,"inconclusive: 14.1 µM [activator, partial curve]"
19,Cn1nc(-c2ccc(C(=O)Nc3cccnc3)cc2)c2ccccc2c1=O,"inconclusive: 3.98 µM [activator, single point]"
20,COC(=O)/C=C1/S/C(=N/N=C/c2ccc(N(C)C)cc2)NC1=O,"inconclusive: 7.08 µM [activator, partial curve]"
21,Cc1nc(=O)c(-c2ccccc2)c(C)n1-c1ccc(C(=O)O)cc1,"inconclusive: 5.01 µM [activator, partial curve]"
22,O=S(=O)(NCC1CCCO1)c1ccc2c(c1)OCCO2 (stereo not drawn),"inconclusive: 20 µM [activator, single point]"

# Molecules listed so far that contain a nitro group on carbon, in the order listed:
row,Compound,Potency
22,O=C(NCCN1C(=O)S/C(=C\c2ccc(Cl)c([N+](=O)[O-])c2)C1=O)C1=COCCO1,inactive
12,Cc1nc([N+](=O)[O-])c(Sc2nc3ccc([N+](=O)[O-])cc3[nH]2)n1Cc1ccccc1,active: 10 µM
13,CCCCn1c(N)c(N(Cc2ccccc2OC)C(=O)c2ccc([N+](=O)[O-])s2)c(=O)[nH]c1=O,"inconclusive: 2.82 µM [activator, partial curve]"

# In a second layout: 2 of the compounds above
row | Compound | Potency
8 | CCCCc1nc2ccccc2c(=O)n1NC(=O)c1c(O)c2c(n(CC(C)C)c1=O)CCCC2 | inconclusive: 2.51 µM [activator, single point]
9 | NS(=O)(=O)c1ccc(CCNC(=O)C(=O)c2cn(CC(=O)N3CCOCC3)c3ccccc23)cc1 | inactive
